Results: article PMC4314665, “Diversity of two-component systems: insights into the signal transduction mechanism by the Staphylococcus aureus two-component system GraSR” (F1000Research, 2014)
These are yes or no findings as the source states them, for the method shown. Tags and fused reporters may be left off the sequences shown.

Molecular target: GST (glutathione S-transferase alone)
Assay: pull-down; GST-fused bait immobilised on glutathione-sepharose resin in 1 x PBS; prey added at bait:prey ratios of about 1:1 to 1:2, 30 min at room temperature; five to seven washes; elution with 10 mM reduced glutathione in 50 mM Tris pH 8.0; SDS-PAGE; both purified

B1: GraX, auxiliary protein (tagless) (natural protein)
chain: MKPKVLLAGGTGYIGKYLSEVIENDAELFAISKYPDNKKTDDVEMTWIQCDIFHYEQVVAAMNQIDIAVFFIDPTKNSAKITQSSARDLTLIAADNFGRAAAINQVKKVIYIPGSRYDNETIERLGAYGTPVETTNLVFKRSLVNVELQVSKYDDVRSTMKVVLPKGWTLKNVVNHFIAWMGYTKGTFVKTEKSHDQFKIYIKNKVRPLAVFKIEETADGIITLILLSGSLVKKYTVNQGKLEFRLIKESAVVYIHLYDYIPRLFWPIYYFIQAPMQKMMIHGFEVDCRIKDFQSRLKSGENMKYTK
notes: Auxiliary protein GraX, S. aureus strain Mu50, full length graX gene; Cloned in pET26b between NdeI and HindIII; Dimers seen by SDS-PAGE without DTT; also called untagged GraX; source: E. coli BL21(DE3), purified (SP-Sepharose cation exchange), to 90%
With B1 the binding was “no binding”.
